Laboratory results published in publication PMC10520482.

Sequences of proteins named here, by UniProt entry; tags and fusion partners are left off.
UniProt P61006: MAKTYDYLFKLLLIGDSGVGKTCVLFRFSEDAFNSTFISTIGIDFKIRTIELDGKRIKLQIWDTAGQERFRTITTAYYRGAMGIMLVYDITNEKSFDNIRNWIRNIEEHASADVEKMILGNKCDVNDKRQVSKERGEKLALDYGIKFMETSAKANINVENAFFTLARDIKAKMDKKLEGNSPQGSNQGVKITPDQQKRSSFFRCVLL
UniProt Q01968: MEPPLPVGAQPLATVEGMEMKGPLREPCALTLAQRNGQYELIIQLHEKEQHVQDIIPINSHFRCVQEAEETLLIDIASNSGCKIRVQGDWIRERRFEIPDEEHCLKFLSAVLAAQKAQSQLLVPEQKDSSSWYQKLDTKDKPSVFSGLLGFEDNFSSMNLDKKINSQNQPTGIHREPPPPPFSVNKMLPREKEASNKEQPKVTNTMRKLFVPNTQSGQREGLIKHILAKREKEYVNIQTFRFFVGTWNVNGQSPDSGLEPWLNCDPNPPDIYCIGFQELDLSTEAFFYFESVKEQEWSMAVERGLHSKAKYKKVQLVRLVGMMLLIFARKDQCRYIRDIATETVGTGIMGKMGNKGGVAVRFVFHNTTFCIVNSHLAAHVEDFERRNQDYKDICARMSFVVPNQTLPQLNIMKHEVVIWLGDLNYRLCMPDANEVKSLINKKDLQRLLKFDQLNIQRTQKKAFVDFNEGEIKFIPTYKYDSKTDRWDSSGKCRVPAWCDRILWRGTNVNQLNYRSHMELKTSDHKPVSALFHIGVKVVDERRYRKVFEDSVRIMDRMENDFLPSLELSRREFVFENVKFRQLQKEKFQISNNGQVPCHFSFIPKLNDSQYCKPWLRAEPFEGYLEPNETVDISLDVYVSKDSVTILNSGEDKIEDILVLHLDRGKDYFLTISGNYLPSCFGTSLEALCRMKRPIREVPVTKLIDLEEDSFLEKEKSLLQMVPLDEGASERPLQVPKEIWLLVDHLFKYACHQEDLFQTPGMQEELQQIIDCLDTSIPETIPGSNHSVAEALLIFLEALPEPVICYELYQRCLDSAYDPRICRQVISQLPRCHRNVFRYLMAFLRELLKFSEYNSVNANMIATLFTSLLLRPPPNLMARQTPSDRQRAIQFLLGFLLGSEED
UniProt O43303: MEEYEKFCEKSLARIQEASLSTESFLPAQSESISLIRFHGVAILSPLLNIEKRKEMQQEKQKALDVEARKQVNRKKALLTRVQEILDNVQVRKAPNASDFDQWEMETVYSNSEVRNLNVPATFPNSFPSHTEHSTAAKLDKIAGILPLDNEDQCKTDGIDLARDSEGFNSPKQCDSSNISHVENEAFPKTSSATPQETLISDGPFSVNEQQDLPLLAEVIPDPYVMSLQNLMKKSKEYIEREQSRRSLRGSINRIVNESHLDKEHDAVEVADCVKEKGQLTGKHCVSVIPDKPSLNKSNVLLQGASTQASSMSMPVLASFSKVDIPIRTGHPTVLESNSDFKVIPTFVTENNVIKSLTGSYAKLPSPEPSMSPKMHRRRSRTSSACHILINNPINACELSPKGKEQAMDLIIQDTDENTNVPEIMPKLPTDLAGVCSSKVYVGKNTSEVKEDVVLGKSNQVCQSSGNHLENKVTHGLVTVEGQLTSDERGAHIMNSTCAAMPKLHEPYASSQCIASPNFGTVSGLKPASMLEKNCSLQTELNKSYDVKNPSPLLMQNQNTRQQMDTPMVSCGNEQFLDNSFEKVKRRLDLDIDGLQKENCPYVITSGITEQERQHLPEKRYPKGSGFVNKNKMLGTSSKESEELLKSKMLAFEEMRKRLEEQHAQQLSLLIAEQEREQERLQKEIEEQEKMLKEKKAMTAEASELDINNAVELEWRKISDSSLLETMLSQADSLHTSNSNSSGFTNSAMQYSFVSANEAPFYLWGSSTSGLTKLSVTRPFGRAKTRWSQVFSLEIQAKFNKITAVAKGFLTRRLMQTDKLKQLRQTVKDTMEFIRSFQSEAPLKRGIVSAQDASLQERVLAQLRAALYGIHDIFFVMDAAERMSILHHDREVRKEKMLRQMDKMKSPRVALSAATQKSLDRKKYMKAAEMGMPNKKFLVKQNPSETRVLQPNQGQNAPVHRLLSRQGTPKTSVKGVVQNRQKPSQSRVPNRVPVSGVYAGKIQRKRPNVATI
UniProt Q8IY31: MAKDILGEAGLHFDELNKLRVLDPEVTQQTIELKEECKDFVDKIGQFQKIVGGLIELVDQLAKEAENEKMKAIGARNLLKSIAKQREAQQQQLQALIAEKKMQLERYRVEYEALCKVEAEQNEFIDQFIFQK
UniProt Q15691: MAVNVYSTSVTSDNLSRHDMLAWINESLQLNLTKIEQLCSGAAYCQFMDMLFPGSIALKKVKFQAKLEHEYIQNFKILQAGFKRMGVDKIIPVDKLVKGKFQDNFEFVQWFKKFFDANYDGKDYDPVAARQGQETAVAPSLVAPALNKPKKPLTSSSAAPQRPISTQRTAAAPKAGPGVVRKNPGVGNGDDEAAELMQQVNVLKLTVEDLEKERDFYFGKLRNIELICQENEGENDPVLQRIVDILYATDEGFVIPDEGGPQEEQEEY
UniProt P33993: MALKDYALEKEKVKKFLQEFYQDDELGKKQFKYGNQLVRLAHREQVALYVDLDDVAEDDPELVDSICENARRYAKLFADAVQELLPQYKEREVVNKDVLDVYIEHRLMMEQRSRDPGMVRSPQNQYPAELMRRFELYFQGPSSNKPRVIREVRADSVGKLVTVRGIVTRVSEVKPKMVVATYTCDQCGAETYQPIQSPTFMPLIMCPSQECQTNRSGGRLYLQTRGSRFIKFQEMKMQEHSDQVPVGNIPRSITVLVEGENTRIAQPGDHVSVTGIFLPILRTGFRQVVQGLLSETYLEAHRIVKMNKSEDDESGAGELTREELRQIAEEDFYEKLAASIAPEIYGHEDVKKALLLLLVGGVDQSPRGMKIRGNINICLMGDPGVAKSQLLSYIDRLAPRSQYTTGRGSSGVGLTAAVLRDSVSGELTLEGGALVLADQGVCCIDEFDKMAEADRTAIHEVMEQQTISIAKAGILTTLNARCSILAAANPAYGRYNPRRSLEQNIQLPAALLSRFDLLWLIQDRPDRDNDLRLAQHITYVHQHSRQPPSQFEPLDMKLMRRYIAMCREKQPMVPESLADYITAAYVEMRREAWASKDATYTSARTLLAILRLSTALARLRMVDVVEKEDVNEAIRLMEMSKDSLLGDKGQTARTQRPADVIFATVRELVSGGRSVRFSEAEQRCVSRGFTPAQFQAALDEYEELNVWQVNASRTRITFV

Legend:
GFP-RAB8A = GFP-RAB8A (UniProt P61006); assay: co-IP; HEK293T co-transfected with MYC-CENTLEIN and a GFP-tagged plasmid for 48 h; anti-GFP immunoprecipitation, blot with anti-MYC and anti-GFP; ELB buffer (50 mM HEPES pH 7.4, 250 mM NaCl, 0.1% NP-40), 4°C
[1] = target: GFP-OCRL (human (from HeLa cDNA)) (UniProt Q01968); assay: as above
[2] = target: GFP-CP110 (human (from HeLa cDNA)) (UniProt O43303); assay: as above
[3] = target: GFP-IFT20 (human (from HeLa cDNA)) (UniProt Q8IY31); assay: as above
[4] = target: T1, GFP-DNM2 (human (from HeLa cDNA)) (UniProt P50570); assay: as above
T1 sequence: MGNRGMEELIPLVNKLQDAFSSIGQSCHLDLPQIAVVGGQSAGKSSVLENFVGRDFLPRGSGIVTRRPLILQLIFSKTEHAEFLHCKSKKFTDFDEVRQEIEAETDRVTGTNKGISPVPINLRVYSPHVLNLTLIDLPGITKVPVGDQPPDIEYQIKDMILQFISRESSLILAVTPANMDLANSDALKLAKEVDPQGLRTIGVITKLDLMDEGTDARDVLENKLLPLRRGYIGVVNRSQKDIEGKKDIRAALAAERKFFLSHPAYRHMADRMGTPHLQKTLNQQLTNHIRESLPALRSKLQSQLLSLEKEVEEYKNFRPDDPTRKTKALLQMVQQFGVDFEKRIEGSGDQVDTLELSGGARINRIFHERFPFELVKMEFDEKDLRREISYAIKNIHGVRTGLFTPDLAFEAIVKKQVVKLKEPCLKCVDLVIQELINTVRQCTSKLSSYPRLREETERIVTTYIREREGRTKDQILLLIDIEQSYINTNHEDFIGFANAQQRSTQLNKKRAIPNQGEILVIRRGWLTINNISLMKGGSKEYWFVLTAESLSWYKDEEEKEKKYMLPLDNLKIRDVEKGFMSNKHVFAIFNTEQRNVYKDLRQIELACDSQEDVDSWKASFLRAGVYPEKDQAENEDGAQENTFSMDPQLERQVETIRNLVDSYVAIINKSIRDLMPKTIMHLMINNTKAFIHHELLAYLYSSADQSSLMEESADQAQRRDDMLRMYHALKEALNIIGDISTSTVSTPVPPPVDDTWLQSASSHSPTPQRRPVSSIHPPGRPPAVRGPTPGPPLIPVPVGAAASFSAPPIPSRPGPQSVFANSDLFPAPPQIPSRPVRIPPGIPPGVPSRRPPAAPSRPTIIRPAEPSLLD

[5] = target: T2, GFP-KIFC3 (human (from HeLa cDNA)) (UniProt Q9BVG8); assay: as above
T2 sequence: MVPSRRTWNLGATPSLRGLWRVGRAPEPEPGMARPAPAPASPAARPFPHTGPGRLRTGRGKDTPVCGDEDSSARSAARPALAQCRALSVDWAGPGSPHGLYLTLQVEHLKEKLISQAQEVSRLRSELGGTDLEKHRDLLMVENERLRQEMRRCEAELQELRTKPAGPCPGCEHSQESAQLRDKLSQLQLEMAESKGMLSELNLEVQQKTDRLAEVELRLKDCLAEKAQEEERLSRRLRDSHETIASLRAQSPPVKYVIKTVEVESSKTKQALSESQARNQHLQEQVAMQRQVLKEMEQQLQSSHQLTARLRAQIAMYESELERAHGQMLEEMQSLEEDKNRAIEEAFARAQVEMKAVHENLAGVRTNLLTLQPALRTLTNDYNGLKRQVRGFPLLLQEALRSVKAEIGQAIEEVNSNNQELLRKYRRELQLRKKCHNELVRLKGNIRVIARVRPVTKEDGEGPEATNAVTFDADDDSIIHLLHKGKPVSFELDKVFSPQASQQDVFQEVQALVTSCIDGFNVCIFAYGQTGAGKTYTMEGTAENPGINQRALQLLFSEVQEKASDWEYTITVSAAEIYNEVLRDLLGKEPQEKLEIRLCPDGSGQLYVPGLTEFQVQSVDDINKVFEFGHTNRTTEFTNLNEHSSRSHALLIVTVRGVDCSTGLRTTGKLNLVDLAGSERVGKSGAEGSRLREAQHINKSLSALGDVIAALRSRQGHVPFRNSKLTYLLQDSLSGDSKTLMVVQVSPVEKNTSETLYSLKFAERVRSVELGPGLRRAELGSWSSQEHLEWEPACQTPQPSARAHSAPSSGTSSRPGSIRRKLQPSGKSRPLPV

GFP-CCDC11 = target: T3, GFP-CCDC11 (UniProt Q96M91); assay: as above
T3 sequence: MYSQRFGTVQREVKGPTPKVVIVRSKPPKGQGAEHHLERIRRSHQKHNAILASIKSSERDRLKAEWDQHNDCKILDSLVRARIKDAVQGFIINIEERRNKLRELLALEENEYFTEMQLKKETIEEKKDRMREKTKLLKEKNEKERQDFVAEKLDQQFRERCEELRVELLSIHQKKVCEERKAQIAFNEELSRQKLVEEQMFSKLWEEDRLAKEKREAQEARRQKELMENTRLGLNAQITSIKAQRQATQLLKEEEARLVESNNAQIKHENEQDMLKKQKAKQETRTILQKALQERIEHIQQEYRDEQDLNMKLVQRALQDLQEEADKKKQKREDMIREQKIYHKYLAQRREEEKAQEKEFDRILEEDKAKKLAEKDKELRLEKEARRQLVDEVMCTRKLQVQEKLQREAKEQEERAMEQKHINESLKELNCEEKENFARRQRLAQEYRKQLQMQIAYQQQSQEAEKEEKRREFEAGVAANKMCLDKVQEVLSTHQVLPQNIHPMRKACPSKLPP

[6] = target: GFP-EB1 (human (from HeLa cDNA)) (UniProt Q15691); assay: as above
GFP-RABIN8 = target: T4, GFP-RABIN8 (UniProt Q96QF0); assay: as above
T4 sequence: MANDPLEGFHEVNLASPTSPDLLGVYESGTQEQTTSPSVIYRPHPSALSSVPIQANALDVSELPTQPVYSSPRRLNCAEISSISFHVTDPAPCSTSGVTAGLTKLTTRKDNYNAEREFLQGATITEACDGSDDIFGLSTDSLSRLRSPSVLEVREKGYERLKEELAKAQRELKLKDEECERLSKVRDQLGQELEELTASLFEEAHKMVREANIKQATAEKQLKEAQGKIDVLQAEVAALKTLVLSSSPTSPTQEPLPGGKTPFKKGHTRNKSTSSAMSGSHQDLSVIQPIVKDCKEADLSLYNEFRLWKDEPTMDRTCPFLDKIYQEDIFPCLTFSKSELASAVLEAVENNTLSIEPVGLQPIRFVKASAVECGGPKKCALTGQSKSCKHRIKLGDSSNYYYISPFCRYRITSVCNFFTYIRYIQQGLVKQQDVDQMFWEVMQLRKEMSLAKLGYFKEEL

[7] = target: GFP-MCM7 (human (from HeLa cDNA)) (UniProt P33993); assay: as above
GST-RABIN8 1‒230 = target: T5, GST-RABIN8 1‒230 (UniProt Q96QF0); assay: pull-down; GST or GST fusion proteins (1 mg) crosslinked to Sepharose beads, incubated with lysate of HEK293T cells transfected with MYC-CENTLEIN in ELB overnight at 4°C; four washes with ELB; western blot; only the target purified
T5 sequence: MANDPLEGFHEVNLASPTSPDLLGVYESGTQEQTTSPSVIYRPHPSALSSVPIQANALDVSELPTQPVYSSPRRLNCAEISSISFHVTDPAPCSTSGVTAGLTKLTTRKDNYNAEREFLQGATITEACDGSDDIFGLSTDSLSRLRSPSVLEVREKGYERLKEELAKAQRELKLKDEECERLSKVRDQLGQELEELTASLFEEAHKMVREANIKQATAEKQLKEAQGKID

GST-RABIN8 1‒260 = target: T6, GST-RABIN8 1‒260 (UniProt Q96QF0); assay: as above
T6 sequence: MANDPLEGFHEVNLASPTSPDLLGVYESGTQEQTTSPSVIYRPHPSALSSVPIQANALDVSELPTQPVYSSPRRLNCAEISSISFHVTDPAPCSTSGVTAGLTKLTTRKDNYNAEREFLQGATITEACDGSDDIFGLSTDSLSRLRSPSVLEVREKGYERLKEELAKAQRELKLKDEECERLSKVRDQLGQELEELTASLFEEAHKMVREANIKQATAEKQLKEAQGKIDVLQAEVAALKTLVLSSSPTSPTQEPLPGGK

GST-RABIN8 261‒460 = target: T7, GST-RABIN8 261‒460 (UniProt Q96QF0); assay: as above
T7 sequence: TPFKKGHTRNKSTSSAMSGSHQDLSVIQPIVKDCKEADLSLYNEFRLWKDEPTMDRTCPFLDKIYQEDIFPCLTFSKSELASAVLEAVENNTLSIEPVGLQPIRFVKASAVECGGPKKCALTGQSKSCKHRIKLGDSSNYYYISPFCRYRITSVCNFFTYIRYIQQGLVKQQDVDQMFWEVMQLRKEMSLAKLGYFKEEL

GST-RABIN8 1‒200 = target: T8, GST-RABIN8 1‒200 (UniProt Q96QF0); assay: as above
T8 sequence: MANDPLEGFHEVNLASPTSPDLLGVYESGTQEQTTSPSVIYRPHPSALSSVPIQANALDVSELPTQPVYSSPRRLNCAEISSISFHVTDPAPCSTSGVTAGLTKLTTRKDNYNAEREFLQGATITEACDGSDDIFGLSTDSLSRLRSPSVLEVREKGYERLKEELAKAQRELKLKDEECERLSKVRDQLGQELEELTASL

GST-RABIN8 = target: T9, GST-RABIN8 (UniProt Q96QF0); assay: as above
T9 sequence: T4 sequence

GST-RABIN8 1‒245 = target: T10, GST-RABIN8 1‒245 (UniProt Q96QF0); assay: as above
T10 sequence: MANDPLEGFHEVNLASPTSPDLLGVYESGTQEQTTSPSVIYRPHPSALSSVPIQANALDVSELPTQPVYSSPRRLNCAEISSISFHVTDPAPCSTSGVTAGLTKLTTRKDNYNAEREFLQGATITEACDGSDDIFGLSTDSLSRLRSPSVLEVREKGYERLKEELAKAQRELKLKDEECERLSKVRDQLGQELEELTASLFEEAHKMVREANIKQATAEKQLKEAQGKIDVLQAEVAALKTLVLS

binding (GFP-RAB8A): no binding | binding [1]: no binding | binding [2]: no binding | binding [3]: no binding | binding [4]: no binding | binding [5]: binds | binding (GFP-CCDC11): no binding | binding [6]: no binding | binding (GFP-RABIN8): binds | binding [7]: no binding | binding (GST-RABIN8 1‒230): binds | binding (GST-RABIN8 1‒260): binds | binding (GST-RABIN8 261‒460): no binding | binding (GST-RABIN8 1‒200): no binding | binding (GST-RABIN8): binds | binding (GST-RABIN8 1‒245): binds
Substance: MYC-CENTLEIN (from UniProt Q9NXG0-2)

No constants are given. Whether binding was seen depends on the method and setting. Binding seen in cells or lysates may run through a third protein. For some of these results: Binding calls can cover weak binding; strength is not graded here. For some of these results: Sequences can lack the tags named with a protein.
